From patent publication US4151300A, “Acetohydroxamic acids” (Laboratoire L. Lafon, priority 1976, dated 1979)
At least one structure is not confirmed: it was looked up by name or label, or the drawing left a doubt.

How the values were obtained:
rats [1] = assay: interaction with apomorphine (stereotype behaviour in rats); type: in vivo; details: i.p.
Procedure: (§1) The following text summarises a part of the results of the tests which were carried out with the products according to the invention, these products (unless otherwise stated) being administered intraperitoneally, in suspension in a gum solution (gum arabic), in a volume of 20 ml/kg in the case of mice and of 5 ml/kg in the case of rats.
Batches of six rats are each given a subcutaneous injection of apomorphine (0.5 mg/kg) 30 minutes after the administration of CRL 40,373.
Batches of 6 rats are given a subcutaneous injection of 0.5 mg/kg of apomorphine 30 minutes after the administration of CRL 40,385.

rats [2] = assay: interaction with amphetamine (stereotypies in rats); type: in vivo
Procedure: as §1
30 minutes after the administration of CRL 40,373, amphetamine is injected intraperitoneally at a dose of 2 mg/kg.
Thirty minutes after the administration of CRL 40,385 the rats are given an intraperitoneal injection of 2 mg/kg of amphetamine (6 animals per dose).

mice [3] = assay: interaction with reserpine (hypothermia, ptosis); type: in vivo; details: i.p.
mice [4] = assay: spontaneous motility (actimeter); type: in vivo; details: i.p.
Procedure: as §1
Thirty minutes after having been given CRL 40,373, the mice (6 per dose, 12 comparison animals) are placed in an actimeter, where their motility is recorded for half an hour.
Thirty minutes after having been given CRL 40,385, the mice are placed in actimeters where their motility is recorded for half an hour.

central nervous system = assay: psychopharmacological study / behaviour; design: species or system mice; details: mouse, in vivo
rats [5] = assay: interaction with methylphenidate (stereotypies); type: in vivo
mice [6] = assay: interaction with oxotremorine (temperature, trembling, peripheral cholinergic symptoms); type: in vivo; details: i.p.
mice [7] = assay: motility reduced by habituation to a cage (residual motility); type: in vivo; details: i.p., 2, 8 and 32 mg/kg
Procedure: as §1
Mice which have remained for 18 hours in the actimeters are given CRL 40,373. They are immediately replaced in their cages and, after a period of half an hour, their motility is recorded for 30 minutes (6 animals per dose, 12 comparison animals).
After remaining for 18 hours in the actimeters, the mice receive CRL 40,385. Immediately afterwards they are replaced in their cage and half an hour afterwards the recording of the motility starts and is continued for 30 minutes.

mice [8] = assay: motility reduced by hypoxia treatment (motor recovery); type: in vivo; details: i.p.

O=C(C[S+]([O-])Cc1ccc(Cl)cc1)NO (stereo not drawn) [CRL 40,411, α-(Chlorobenzylsulphinyl)-acetohydroxamic acid]
apomorphine-induced stereotypies (rats [1]): does not modify those induced by apomorphine | amphetamine-induced stereotypies (rats [2]; i.p.): inhibits the stereotypies induced by amphetamine | reserpine-induced hypothermia (mice [3]): moderately inhibits the hypothermia induced by reserpine | reserpine-induced ptosis (mice [3]): without acting on the ptosis induced by reserpine | motor activity (mice [4]; doses equal to or greater than 64 mg/kg): reduction in the motor activity in mice | psychopharmacological profile / conclusion (central nervous system): psychopharmacological profile similar to that of CRL 40,382 | methylphenidate-induced stereotypies (rats [5]): does not modify those induced by apomorphine and methylphenidate

O=C(C[S+]([O-])Cc1cccc2ccccc12)NO (stereo not drawn) [CRL 40,475, α-Naphthylmethylene-sulphinyl-acetohydroxamic acid]
apomorphine-induced stereotypies (rats [1]): does not influence the stereotypies induced by apomorphine | amphetamine-induced stereotypies (rats [2]; i.p., 32, 128 and 256 mg/kg): reduces the intensity of amphetamine-induced stereotypies in rats | temperature (oxotremorine-induced hypothermia) (mice [6]): partially opposes the hypothermia-inducing action of oxotremorine | spontaneous motility (mice [4]; 8 mg/kg): slight hypermotility | spontaneous motility (mice [4]; 128 mg/kg and above): large reduction in the spontaneous motor activity of mice | motility reduced by habituation to the cage (mice [7]): moderate resumption of activity in mice habituated to their cage | motor recovery after hypoxia/anoxia by pressure reduction (mice [8]): does not produce an improvement in the motor recovery in mice | motor recovery after hypoxia/anoxia by pressure reduction (mice [8]; 128 mg/kg): does not alter the activity of mice who have undergone anoxia induced by pressure reduction | psychopharmacological profile / conclusion (central nervous system): sedative and anticonvulsive agent

O=C(Cc1nc2ccccc2n1-c1ccccc1)NO [CRL 40,490, 2-(1-Phenyl-benzimidazolyl)-acetohydroxamic acid]
reserpine-induced hypothermia (mice [3]; 128 mg/kg): combats hypothermia induced by reserpine | spontaneous motility (mice [4]; 512 mg/kg): reduces the motor activity of mice
